Some of the results follow.

Amino acid sequences for entries named in this document (tags omitted). A change or cut given only in a name is not applied to a line headed by its entry.
UniProt P28749: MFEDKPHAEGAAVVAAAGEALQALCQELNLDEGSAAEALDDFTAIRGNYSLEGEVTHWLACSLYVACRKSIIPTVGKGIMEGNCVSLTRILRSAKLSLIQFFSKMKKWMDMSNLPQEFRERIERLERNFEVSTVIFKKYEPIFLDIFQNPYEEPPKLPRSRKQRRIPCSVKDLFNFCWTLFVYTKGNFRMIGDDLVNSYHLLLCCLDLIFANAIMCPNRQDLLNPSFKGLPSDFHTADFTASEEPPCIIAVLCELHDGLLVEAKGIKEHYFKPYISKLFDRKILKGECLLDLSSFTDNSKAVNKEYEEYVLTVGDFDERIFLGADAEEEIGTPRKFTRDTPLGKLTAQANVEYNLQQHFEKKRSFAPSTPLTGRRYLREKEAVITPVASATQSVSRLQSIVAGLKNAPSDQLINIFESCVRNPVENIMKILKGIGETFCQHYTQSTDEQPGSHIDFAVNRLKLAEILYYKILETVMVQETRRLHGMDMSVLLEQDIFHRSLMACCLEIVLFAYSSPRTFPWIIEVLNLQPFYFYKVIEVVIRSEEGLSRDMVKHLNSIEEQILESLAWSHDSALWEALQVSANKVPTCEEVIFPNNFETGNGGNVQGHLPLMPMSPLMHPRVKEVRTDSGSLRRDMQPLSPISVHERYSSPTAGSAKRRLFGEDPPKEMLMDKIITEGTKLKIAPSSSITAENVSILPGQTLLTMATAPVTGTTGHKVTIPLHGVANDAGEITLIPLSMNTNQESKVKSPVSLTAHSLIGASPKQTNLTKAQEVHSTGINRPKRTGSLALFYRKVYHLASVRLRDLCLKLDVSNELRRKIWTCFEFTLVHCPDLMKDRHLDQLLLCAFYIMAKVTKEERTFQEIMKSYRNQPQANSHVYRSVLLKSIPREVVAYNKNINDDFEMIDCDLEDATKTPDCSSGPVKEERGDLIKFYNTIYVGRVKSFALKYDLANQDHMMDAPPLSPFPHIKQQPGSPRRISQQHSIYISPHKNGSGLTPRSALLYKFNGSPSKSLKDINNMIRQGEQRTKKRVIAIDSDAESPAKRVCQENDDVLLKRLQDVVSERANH
UniProt Q8NBN7: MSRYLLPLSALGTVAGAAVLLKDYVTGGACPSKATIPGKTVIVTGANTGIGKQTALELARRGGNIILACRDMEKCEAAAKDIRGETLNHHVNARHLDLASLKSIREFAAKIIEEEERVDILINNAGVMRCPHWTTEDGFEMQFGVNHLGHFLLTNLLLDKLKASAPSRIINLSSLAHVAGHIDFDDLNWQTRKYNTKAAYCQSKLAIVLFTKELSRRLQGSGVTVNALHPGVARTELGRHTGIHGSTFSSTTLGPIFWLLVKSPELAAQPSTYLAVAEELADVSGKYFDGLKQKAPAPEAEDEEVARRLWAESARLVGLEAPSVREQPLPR
UniProt Q969Q5: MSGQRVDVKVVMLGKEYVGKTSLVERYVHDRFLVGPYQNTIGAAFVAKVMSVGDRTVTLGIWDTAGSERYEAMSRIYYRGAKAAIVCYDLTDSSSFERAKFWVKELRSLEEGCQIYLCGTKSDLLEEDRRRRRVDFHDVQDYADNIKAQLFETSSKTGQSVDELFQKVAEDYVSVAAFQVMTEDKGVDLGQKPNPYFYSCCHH
UniProt Q9P2N5: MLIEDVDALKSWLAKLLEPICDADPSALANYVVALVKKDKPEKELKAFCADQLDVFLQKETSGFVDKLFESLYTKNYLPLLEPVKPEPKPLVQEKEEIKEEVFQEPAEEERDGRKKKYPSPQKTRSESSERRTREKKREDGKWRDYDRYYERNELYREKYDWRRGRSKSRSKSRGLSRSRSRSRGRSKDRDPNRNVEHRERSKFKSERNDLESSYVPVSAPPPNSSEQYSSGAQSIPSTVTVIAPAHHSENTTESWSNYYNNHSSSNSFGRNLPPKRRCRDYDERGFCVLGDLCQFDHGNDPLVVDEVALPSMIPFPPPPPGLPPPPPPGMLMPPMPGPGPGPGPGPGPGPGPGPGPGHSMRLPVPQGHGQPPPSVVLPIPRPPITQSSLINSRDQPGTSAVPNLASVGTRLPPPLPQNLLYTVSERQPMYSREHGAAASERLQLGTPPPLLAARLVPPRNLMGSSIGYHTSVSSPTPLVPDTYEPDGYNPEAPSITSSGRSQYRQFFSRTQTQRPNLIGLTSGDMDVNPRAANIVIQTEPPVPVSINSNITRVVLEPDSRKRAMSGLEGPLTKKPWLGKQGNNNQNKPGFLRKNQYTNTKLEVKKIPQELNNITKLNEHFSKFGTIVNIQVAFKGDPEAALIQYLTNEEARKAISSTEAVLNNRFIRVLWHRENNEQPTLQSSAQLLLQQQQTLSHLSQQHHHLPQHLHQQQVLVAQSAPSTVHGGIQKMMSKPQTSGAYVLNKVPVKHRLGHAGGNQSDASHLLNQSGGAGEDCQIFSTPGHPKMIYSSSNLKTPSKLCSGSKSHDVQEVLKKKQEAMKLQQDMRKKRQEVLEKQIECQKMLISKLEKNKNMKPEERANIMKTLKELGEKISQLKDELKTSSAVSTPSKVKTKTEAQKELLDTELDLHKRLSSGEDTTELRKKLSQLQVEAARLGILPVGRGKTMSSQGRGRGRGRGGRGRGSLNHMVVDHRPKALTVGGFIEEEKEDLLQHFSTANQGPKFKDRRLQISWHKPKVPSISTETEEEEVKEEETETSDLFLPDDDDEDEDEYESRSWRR
UniProt Q5UIP0: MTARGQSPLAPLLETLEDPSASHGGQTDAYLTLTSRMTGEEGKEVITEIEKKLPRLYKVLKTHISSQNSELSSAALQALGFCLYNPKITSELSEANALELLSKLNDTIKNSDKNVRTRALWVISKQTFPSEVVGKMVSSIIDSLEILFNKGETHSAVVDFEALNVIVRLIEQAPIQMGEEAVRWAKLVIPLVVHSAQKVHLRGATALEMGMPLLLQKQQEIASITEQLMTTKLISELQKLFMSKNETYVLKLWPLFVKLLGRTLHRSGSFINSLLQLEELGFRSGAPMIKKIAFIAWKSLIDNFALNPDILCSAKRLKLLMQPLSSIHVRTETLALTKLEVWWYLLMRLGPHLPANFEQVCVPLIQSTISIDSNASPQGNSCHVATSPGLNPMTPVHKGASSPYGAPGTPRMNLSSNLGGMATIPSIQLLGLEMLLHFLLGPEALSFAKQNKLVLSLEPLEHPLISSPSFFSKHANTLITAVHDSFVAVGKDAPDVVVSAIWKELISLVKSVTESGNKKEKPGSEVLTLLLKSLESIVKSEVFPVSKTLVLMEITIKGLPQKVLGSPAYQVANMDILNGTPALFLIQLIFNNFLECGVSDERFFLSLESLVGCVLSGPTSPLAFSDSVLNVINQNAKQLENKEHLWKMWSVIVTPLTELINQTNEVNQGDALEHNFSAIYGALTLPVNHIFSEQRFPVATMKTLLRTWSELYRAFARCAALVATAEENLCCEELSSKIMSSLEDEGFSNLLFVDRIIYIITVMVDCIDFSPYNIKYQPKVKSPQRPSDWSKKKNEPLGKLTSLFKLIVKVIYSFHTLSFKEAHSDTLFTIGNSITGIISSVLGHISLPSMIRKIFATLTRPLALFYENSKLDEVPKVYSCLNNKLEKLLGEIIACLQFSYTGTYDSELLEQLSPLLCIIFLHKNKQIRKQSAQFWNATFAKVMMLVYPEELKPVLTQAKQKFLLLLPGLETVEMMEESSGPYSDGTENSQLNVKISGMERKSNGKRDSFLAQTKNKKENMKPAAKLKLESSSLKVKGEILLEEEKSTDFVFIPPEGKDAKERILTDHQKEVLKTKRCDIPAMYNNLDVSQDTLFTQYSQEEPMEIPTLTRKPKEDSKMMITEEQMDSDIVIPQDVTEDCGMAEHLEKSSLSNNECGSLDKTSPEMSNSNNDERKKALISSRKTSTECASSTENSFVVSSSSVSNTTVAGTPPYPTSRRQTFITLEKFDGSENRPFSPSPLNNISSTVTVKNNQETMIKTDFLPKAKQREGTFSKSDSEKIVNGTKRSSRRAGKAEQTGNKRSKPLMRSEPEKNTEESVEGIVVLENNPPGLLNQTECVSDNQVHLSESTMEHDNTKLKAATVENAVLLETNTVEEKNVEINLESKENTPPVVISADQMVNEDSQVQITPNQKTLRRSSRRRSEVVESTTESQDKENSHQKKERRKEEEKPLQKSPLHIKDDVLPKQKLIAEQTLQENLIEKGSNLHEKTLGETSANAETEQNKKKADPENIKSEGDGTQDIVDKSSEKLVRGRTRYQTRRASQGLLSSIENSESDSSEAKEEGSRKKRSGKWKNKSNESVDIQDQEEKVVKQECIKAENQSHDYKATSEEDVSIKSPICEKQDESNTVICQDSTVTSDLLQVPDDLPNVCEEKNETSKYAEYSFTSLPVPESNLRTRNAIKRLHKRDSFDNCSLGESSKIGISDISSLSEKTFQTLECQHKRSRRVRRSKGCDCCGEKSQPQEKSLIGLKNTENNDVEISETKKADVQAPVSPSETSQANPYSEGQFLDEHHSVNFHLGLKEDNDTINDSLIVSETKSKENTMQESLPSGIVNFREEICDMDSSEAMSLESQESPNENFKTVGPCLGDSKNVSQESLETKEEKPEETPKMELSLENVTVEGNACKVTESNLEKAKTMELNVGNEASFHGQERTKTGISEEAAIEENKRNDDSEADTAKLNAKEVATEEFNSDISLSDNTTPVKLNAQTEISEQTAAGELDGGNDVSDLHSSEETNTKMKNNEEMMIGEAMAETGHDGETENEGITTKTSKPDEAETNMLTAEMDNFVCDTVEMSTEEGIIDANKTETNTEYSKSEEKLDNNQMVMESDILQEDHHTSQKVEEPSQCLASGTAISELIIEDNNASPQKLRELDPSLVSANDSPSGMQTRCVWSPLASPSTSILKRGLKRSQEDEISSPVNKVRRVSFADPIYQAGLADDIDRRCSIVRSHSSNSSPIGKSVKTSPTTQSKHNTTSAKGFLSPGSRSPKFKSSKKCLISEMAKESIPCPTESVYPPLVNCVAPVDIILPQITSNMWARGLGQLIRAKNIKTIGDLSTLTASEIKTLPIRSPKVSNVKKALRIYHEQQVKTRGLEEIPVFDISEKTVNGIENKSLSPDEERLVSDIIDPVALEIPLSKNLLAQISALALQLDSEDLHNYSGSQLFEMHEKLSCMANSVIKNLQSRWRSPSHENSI
UniProt P62834: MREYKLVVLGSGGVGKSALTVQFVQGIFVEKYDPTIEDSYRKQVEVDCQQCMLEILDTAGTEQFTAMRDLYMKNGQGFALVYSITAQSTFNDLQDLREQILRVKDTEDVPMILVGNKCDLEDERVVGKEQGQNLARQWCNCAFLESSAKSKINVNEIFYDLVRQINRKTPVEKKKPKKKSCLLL
UniProt P78332: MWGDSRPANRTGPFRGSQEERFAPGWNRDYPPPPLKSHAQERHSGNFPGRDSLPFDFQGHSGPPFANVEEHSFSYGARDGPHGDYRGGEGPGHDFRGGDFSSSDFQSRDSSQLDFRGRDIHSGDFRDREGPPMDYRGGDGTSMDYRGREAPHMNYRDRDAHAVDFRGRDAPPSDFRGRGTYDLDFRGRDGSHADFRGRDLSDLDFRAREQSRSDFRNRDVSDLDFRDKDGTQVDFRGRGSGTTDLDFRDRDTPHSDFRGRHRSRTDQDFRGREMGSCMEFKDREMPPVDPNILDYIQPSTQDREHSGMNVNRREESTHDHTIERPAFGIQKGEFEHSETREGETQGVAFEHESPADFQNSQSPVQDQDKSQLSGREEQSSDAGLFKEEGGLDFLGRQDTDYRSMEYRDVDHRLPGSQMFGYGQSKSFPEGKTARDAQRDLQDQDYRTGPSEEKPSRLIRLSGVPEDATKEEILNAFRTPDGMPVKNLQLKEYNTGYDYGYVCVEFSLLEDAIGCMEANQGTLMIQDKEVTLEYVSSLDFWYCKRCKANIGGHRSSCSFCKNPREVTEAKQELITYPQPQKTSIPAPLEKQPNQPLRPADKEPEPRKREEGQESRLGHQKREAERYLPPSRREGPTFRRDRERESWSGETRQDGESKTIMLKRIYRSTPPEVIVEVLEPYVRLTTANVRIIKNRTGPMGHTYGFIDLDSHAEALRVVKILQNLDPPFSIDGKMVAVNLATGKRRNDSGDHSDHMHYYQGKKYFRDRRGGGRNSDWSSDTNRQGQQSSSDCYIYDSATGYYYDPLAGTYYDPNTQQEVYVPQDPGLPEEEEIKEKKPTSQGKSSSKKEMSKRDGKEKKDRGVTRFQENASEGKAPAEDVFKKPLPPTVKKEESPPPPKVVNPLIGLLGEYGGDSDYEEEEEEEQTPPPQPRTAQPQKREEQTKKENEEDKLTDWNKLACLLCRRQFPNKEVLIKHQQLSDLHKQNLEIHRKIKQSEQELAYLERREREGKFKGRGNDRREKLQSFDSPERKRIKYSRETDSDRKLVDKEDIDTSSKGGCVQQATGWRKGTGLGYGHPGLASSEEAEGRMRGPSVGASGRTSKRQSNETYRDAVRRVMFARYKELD
UniProt Q969G6: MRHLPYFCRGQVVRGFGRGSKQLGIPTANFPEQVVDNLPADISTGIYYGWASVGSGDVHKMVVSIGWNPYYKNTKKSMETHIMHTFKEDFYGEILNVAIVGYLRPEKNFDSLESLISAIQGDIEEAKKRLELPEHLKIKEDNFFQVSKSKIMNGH

Compound in this test: COc1ccc(Cn2ccc3cc(C)c(C(=O)NO)cc32)cc1
Briefly: dose-dependent thermal stabilisation call (2D-TPP, DLPTP, 10% FDR) (binary (1 = stabilised)); higher = stabilised by the compound. The conditions noted are these: system: HL-60 intact cells; concentration range 0.04-10 µM. As for the experimental part: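 2D thermal proteome profiling in intact HL-60 cells treated with BRD-3811 (0, 0.04, 0.29, 2, 10 uM) for 90 min at 37 C, then heated 3 min at one of 12 temperatures (42-63.9 C). Soluble protein was quantified by TMT10 MS. The value is the DLPTP call of the paper: dose-dependent thermal stabilisation over all temperatures at 10% FDR (F-test of a dose-response against a flat model); one experiment, one call per tested protein.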
In the case of RAB3A (UniProt P20336), the “dose-dependent thermal stabilisation call” value was inactive: 0.
Turning to RBM15 (UniProt Q96T37), the “dose-dependent thermal stabilisation call” value is inactive: 0.
In the case of RBL1 (UniProt P28749), the “dose-dependent thermal stabilisation call” value was inactive: 0.
As for RER1 (UniProt O15258), the figure is inactive: 0; as for UniProt Q5TEC6_HUMAN, inactive: 0; as for PURB (UniProt Q96QR8), inactive: 0.
Regarding RDH13 (UniProt Q8NBN7), the “dose-dependent thermal stabilisation call” value is inactive: 0.
For the target RABL5 (UniProt Q9H7X7), the “dose-dependent thermal stabilisation call” value was inactive: 0.
As for PVRL1 (UniProt Q15223), the figure is inactive: 0; as for RBM15B (UniProt Q8NDT2), inactive: 0.
In the case of RAG1AP1 (UniProt Q9BRV3), the “dose-dependent thermal stabilisation call” value was inactive: 0.
Under RAB24 (UniProt Q969Q5) stands inactive: 0.
As for QSOX1 (UniProt O00391), the figure is inactive: 0.
As for RBM27 (UniProt Q9P2N5), the “dose-dependent thermal stabilisation call” value was inactive: 0.
As for RBKS (UniProt Q9H477), the figure is inactive: 0; as for RAI1 (UniProt Q7Z5J4), inactive: 0; as for RAD18 (UniProt Q9NS91), inactive: 0.
As to RIPK2 (UniProt O43353), the “dose-dependent thermal stabilisation call” value is inactive: 0.
In the case of RCC2 (UniProt Q9P258), the “dose-dependent thermal stabilisation call” value was inactive: 0.
Under RC3H2 (UniProt Q9HBD1) stands inactive: 0; under RIF1 (UniProt Q5UIP0), inactive: 0; under RAB12 (UniProt Q6IQ22), inactive: 0.
As for RDH11 (UniProt Q8TC12), the figure is inactive: 0.
As to RAPGEF1 (UniProt Q13905), the “dose-dependent thermal stabilisation call” value was inactive: 0.
For the target PWP1 (UniProt Q13610), the “dose-dependent thermal stabilisation call” value was inactive: 0.
Under RAD51L1 (UniProt O15315) stands inactive: 0.
Under RBM7 (UniProt Q9Y580) stands inactive: 0.
Regarding PWP2 (UniProt Q15269), the “dose-dependent thermal stabilisation call” value is inactive: 0.
Turning to RAP1A (UniProt P62834), the “dose-dependent thermal stabilisation call” value was inactive: 0.
Regarding PXN (UniProt P49023), the “dose-dependent thermal stabilisation call” value was inactive: 0.
With RIOK3 (UniProt O14730), the “dose-dependent thermal stabilisation call” value was inactive: 0.
With RBM14 (UniProt Q96PK6), the “dose-dependent thermal stabilisation call” value is inactive: 0.
Take RALA (UniProt P11233): the “dose-dependent thermal stabilisation call” value was inactive: 0.
Under RBM6 (UniProt P78332) stands inactive: 0.
For the target RNF149 (UniProt Q8NC42), the “dose-dependent thermal stabilisation call” value is inactive: 0.
On to RFK (UniProt Q969G6), for which the “dose-dependent thermal stabilisation call” value was inactive: 0.

The record behind these values is the supplement of paper PMC7666118.
